This series has as its system esophageal strictures generated by endoscopic mucosal resection (EMR). Briefly: Esophageal stricture (endoscopic mucosal resection) formation and treatment with compound I(a) plus PTA with light in minipigs. It is filed as in vivo, Yucatan minipigs. Conditions: one row per animal. The source says:
Five healthy Yucatan minipigs (20-28 kg) were enrolled in the study. For the EMR procedure, each animal was monitored and maintained under anesthesia throughout the duration of the procedure. Each animal was placed in a supine position and elevated to a 5-12 degrees reverse Trendelenburg position, to aid in keeping gastric fluids from coming into the EMR procedural area. A water base lubricant (Astroglide) was used to aid at every insertion of the endoscope.
The upper GI was intubated and surveyed for abnormalities and gastric fluid content via a GIF-XQ140 endoscope. Of the five animals, three animals underwent lavage to remove excess fluid and debris from the esophagus and gastric lumen by washing with saline and suctioning out fluid/debris. A fluoroscopic esophagogram was taken of the target area with the endoscope in place (FIG. 1). The distal tip was measured with a calibrated digital caliper and the measurement was used to calibrate the fluoroscopic measurement tool. […] All representative fluoroscopic and endoscopic imagery are from animal 19P39 unless otherwise stated.
The scope tip was positioned within ±3 cm of the target site. Suction was applied through the gastroscope to visualize the esophageal mucosa at the distal attachment (DA) and to visualize the injection range to capture approximately three-fourths of the esophageal lumen at the target site. The needle from the disposable EMR kit was inserted through the endoscope biopsy channel and into the endoscope field of view (FIG. 2A). The injector slider was pushed until it clicked into position to extend the needle from the sheath. A 10 mL syringe with saline was connected to the injector port. Suction was applied and the injector needle advanced to pierce the target mucosa and to inject a bolus of saline (FIG. 2B). The target area was injected with 0.5 mL to 2.0 mL of saline multiple times to reach a coverage of approximately three-fourths circumference of the target area. Following injections suction was released, and the needle withdrawn from the biopsy channel for insertion of the snare.
The snare was used to remove the blistered mucosal tissue from the treated area. The snare was retracted and inserted into the biopsy channel and advanced into the field of view with the distal sheath. The snare was connected to the electrosurgical unit (Olympus PSD-20). The electrosurgical unit has two settings, one setting is CUT, which is used to cut the tissue and the other setting is COAG, which is used to cauterize the tissue. The snare loop tip was slowly extended approximately 5-10 mm beyond the DA, and CUT was activated marking the base of the tissue bolus by cauterizing the mucosa (FIG. 3A). […]

Setting [1] is: Study Day 49 necropsy, cross-section of esophagus, compound I(a) + PTA w/ light.

Several values for one entry are separate records, joined by “and”; a condition that tells them apart may be missing. Equal values may be shown once.

`NCCOCCOCCNc1ccc2c3c(cccc13)C(=O)N(CCOCCOCCN1C(=O)c3cccc4c(NCCOCCOCCN)ccc(c34)C1=O)C2=O` [compound I(a)]: the “Relaxed Esophagus Diameter Distal Balloon” value (Study Day 49, fluoroscopic, untreated esophagus caudal to occlusion balloon, compound I(a) + PTA w/light animals) is 5.8 mm and 6.4 mm and 10.4 mm. Besides, the “Esophagus Diameter with Inflated Balloon” value (Study Day 49, fluoroscopic, compound I(a) + PTA w/light animals) is 20.0 mm and 23.4 mm and 25.8 mm. For the same molecule, under setting [1], the “Caudal to Stricture, Width” value is 20 millimeters and 23 millimeters and 17 millimeters; the “Cranial to Stricture, Width” value was 19 millimeters and 21 millimeters and 20 millimeters.

Values taken from patent US12295949B2, “Treatment of the gastrointestinal tract with dimeric naphthalimide compounds” (Alumend, LLC, priority 2022, dated 2025).
